Measurements published in ChEMBL document CHEMBL4303122, “Identification of potential treatments for COVID-19 through artificial intelligence-enabled phenomic analysis of human cells infected with SARS-CoV-2” (2020).
In all, about 1,600 compounds were measured (“Hit score”: median about 0.13, highest 2% from about 0.46 on). The list shows a part of the results.

What follows are compounds tested on SARS-CoV-2 (assay: Antiviral activity against SARS-CoV-2 (USA-WA1/2020 strain) measured by imaging in HRCE cells at MOI 0.4 after 96 hrs (reported as hit score from 0-1 for on-disease vs off-disease activity: scores >0.6 considered hits)).
Assay type: functional, Homo sapiens
`COc1ccc(OC)c(C(O)CNC(=O)CN)c1` (stereo not given) [MIDODRINE] showed a Hit score of 0.1739. For `CC(S)C(=O)NCC(=O)O` (stereo not given) [TIOPRONIN], the Hit score was 0.1099. In the case of `C[C@H]1C[C@H]2[C@@H]3CCC4=CC(=O)C=C[C@]4(C)[C@@]3(F)[C@@H](O)C[C@]2(C)[C@@]1(O)C(=O)CO` [BETAMETHASONE], the Hit score is reported as 0.07895. `O=C(CCc1ccc(O)cc1)c1c(O)cc(O)cc1O` [PHLORETIN] gave a Hit score of 0.1024. `NC(=O)c1cccc2cn(-c3ccc([C@@H]4CCCNC4)cc3)nc12` [NIRAPARIB] gave a Hit score of 0.06081. For `CC[C@@H](C(N)=O)N1CCCC1=O`, the Hit score was 0.04659. For `C=CCN1CCc2nc(N)sc2CC1` [TALIPEXOLE], the Hit score was 0.06674. Work on `COc1cc2nccc(Oc3ccc(NC(=O)Nc4cc(C)on4)c(Cl)c3)c2cc1OC` [TIVOZANIB] yielded a Hit score of 0.1611. In the case of `CC(C)(C#N)c1cc(Cn2cncn2)cc(C(C)(C)C#N)c1` [ANASTROZOLE], the Hit score is reported as 0.2057. Work on `CC(=O)c1ccc2c(c1)N(CCCN(C)C)c1ccccc1S2` [ACEPROMAZINE] yielded a Hit score of 0.08942. Compound `C[N+](C)(C)CCO` [CHOLINE] has a Hit score of 0.1686. Work on `CO/N=C(\C(=O)N[C@@H]1C(=O)N2C(C(=O)O)=C(COC(N)=O)CS[C@H]12)c1ccco1` [CEFUROXIME] yielded a Hit score of 0.29. `Nc1ccn([C@H]2CC[C@@H](CO)O2)c(=O)n1` [ZALCITABINE] gave a Hit score of 0.1927. `COc1cccc(C(=O)CCN[C@@H](C)[C@H](O)c2ccccc2)c1` [OXYFEDRINE] showed a Hit score of 0.05957. `Nc1nc2ccc(OC(F)(F)F)cc2s1` [RILUZOLE] gave a Hit score of 0.1438. With `CN1CCC(=C2c3ccccc3CCc3cccnc32)CC1` [AZATADINE] the Hit score was 0.09283. Work on `COc1ccc2c(c1)c(CC(=O)O)c(C)n2C(=O)c1ccc(Cl)cc1` [INDOMETHACIN] yielded a Hit score of 0.1032. For `OC[C@H]1O[C@H](O[C@]2(CCl)O[C@H](CCl)[C@@H](O)[C@@H]2O)[C@H](O)[C@@H](O)[C@H]1Cl` [SUCRALOSE], the Hit score was 0.1698. In the case of `CO[C@H]1/C=C/O[C@@]2(C)Oc3c(C)c(O)c4c(O)c(cc(O)c4c3C2=O)NC(=O)/C(C)=C\C=C\[C@H](C)[C@H](O)[C@@H](C)[C@@H](O)[C@@H](C)[C@H](OC(C)=O)[C@@H]1C` [RIFAMYCIN], the Hit score is reported as 0.1815. `CC(=O)OCC(=O)[C@@]1(O)[C@@H](C)C[C@H]2[C@@H]3CCC4=CC(=O)C=C[C@]4(C)[C@@]3(F)[C@@H](O)C[C@@]21C` [BETAMETHASONE ACETATE] showed a Hit score of 0.2562.
